Here are results for one substance from PMC6908725.

Sequences of proteins named here, by UniProt entry; tags and fusion partners are left off.
UniProt P37231: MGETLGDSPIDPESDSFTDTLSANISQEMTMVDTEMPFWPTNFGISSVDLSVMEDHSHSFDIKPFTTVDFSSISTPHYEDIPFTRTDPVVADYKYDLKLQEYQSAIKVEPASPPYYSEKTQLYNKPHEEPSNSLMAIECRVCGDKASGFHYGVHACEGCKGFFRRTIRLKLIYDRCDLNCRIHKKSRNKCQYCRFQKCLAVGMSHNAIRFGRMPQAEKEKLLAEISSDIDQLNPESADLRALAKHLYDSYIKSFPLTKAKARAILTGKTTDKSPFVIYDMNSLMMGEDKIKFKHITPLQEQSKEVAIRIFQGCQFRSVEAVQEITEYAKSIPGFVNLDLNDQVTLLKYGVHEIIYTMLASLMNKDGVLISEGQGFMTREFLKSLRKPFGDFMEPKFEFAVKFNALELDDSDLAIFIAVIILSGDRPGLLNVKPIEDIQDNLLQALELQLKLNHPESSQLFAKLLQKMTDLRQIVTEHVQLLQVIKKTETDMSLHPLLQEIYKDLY
UniProt Q01469: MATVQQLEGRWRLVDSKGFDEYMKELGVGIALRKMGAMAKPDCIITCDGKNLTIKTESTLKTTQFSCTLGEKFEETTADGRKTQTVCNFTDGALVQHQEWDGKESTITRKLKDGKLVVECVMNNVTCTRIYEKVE

In the experiment the target is Peroxisome proliferator-activated receptor gamma (human (endogenous in PC3)) (UniProt P37231). The experiment is described as follows: co-IP; PPARγ immunoprecipitated with mouse anti-PPARγ and Protein G agarose from lysates of PC3 vector control cells and PC3 cells overexpressing FASN or MAGL (20 mM Tris-HCl, 150 mM NaCl, 1 mM EDTA, 1% NP-40, pH 7.4; diluted 1:2 in PBS; overnight at 4 °C); western blot for FABP5 and PPARγ.

Results are given in words; binding and its absence hold for the method and conditions named. In cells and extracts the contact can be indirect. Some results given as binding are weak or reduced against the parent protein; the word gives no strength.

As to “fatty acid binding protein 5 (from UniProt Q01469 1-135)”, the binding result is on record as “binds”.
